## Library screening results

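Viability assay of Plasmodium falciparum sporozoites; the read-out is not stated. The concentration is filed as 10 mM, unlikely as a test dose, so the dose is not known. The record gives no direction; compounds that gave an IC50 in retests scored well above the rest, so higher reads as lower viability. Strong results were mostly tested again. Of about 34,000 compounds tested this way, about 280 (0.84%) reached 50% or more in at least one test.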

Values are the deposited “Percent Effect”, in %.
The record does not define 0% and 100%; most values in the screen are far below 50% and negative numbers occur (in some assays of this library far below -100).
The compounds are a random part of those screened.
Two or more numbers in one place are separate tests of the same structure; such repeats can differ widely.

* CCCc1cc(C(=O)N(C)Cc2cccc3ncccc23)n(C)n1 : 9.815%
* Cn1cc(-c2ncc(C(=O)NCCCn3ccccc3=O)s2)cn1 : -7.843%
* CC(=O)NCC(=O)N1CCC(c2cncc(Oc3cccnc3)n2)CC1 : 13.35%
* CC(=O)N1CCN(C(=O)C(C)n2cncn2)CC1 (centres unmarked) : -9.069%
* CNC(=O)NC(=O)CN1CCN(c2ccc(C(=O)OC)cc2)CC1C (centres unmarked) : 6.941%
* Cc1ccc(CNC(=O)NCCCn2nc3ccccn3c2=O)s1 : 14.72%
* CN(Cc1nnc(-c2cccs2)o1)C(C(N)=O)c1cccc(F)c1 (centres unmarked) : -9.173%
* O=C(CCc1cncc(F)c1)NS(=O)(=O)c1ccc(F)cc1F : -2.738%
* Cc1nnn2c1COCC(CNC(=O)c1ccc3[nH]ccc3c1)C2 (centres unmarked) : -0.6543%
* CC[C@@H]1N(Cc2ccncc2)CCC[C@]12CCC(=O)N2CCOC.O=C(O)C(F)(F)F.O=C(O)C(F)(F)F : -4.825%
* Cc1cc(C(=O)N2CCCC(n3cncn3)C2)on1 (centres unmarked) : 14.45%
* Cc1nnc(NC(=O)NC2CCCc3c2cnn3CCO)s1 (centres unmarked) : -13.73%
* COCC(=O)N1CC(=O)c2sc(Nc3ccc(F)cc3F)nc2C1 : 4.826%
* Fc1cnc(N2CCCn3c(CN4CCOCC4)nnc3C2)nc1.O=C(O)C(F)(F)F.O=C(O)C(F)(F)F : 9.591%
* CCn1nc(CC(C)C)cc1C(=O)NCCn1cccc1 : -1.12%
* Cc1cc(C)n(CC2CCCN2C(=O)c2cccc3c2OCO3)n1 (centres unmarked) : 12.42%
* CN(C)c1ccc(CNc2cncc(-n3cccn3)n2)cc1 : 2.78%
* O=C(COC1CCCCC1)N1CCCC(n2ccnc2)C1 (centres unmarked) : -8.373%
* CC(C)N1CCC(c2nc3ccc(-c4ccnn4C)cn3n2)CC1.O=C(O)C(F)(F)F : 14.67%
* Cc1cc(N2CCC(NS(C)(=O)=O)CC2)nc(C(C)C)n1 : 0.09158%
* COc1c(CNCc2cnn(C)c2)c(C(C)C)nn1C : 0.6595%
* CN1CCCC(c2cncc(-c3cccc(C(F)(F)F)c3)n2)C1 (centres unmarked) : 2.26%
* CN(Cc1cnn(C)c1)C(=O)NCCc1ccc2c(c1)OCCO2 : 5.451%
* Cc1noc(Cl)c1CCC(=O)N1CCN(Cc2ccncc2)CC1 : -0.2693%
* CC(=O)Nc1ncc(S(=O)(=O)Nc2cccc(F)c2)s1 : -17.58% & -16.77%
* [H][C@]12CC[C@]([H])(CN(C(=O)c3ccncc3)C1)N(C(=O)N1CCOCC1)C2 : 6.009%
* [H][C@@]12CS(=O)(=O)C[C@]1([H])N(Cc1nc3ccccc3[nH]1)CCN2CC(C)C : -17.99%
* Cc1n[nH]c(C(=O)NCc2ccnc(OCC(F)(F)F)c2)c1Br : -2.803%
* O=C(O)C(F)(F)F.[H][C@]12CC[C@@]3(N=C(CC)N(C)C3=O)[C@@]1([H])CN(CC1CC1)C2 : -11.89%
* CC(CCO)Nc1cccc(C(F)(F)F)n1 (centres unmarked) : 3.395%
* O=C(O)C(F)(F)F.O=C(O)C(F)(F)F.[H][C@@]12CCC(=O)N(CC3CC3)[C@]1([H])CCN2Cc1ccccn1 : 1.839%
* Cc1cccc(NC(=O)[C@@H]2CCCN2Cc2ccc(C#N)cc2F)n1 : -15.69%
* Cc1ccc(C2CCCCCN2Cc2cn(C)nc2C)s1 (centres unmarked) : -2.57%
* CC(C)c1ncc2c(n1)CN(Cc1nc(-c3ccccn3)no1)CC2 : 23.85% & 16.61% & 17.68%
* c1cncc(N2CCCn3nnc(CN4CCOCC4)c3C2)c1 : -12.59%
* O=C(O)C(F)(F)F.[H][C@@]12CN(CC)C[C@]1(C(=O)N(C)C)CCC21CCN(S(C)(=O)=O)CC1 : 5.537%
* [H][C@]12CCN(C(=O)c3ccoc3)[C@@]1([H])CC[C@H](COCc1ccccn1)O2 : -7.253%
* CC(C)(C)c1cn2nc(N3CCC[C@@H]3CO)sc2n1 : 17.39% & 28.04% & -16.18%
* Cc1ncsc1C(=O)N(C)Cc1cccnc1 : 16.25%
* O=C(CCCn1cncn1)N1CCCC1c1noc(C2CC2)n1 (centres unmarked) : 2.284%
* CN(CCc1ccncc1)C(=O)c1sccc1OC(F)F : 6.681%
* [H][C@@]12CN(Cc3cccc(Oc4ccccc4)c3)C[C@]1(C(=O)O)CNC2=O : -8.639%
* Cc1csc(CNC(=O)NCC(C)Cn2nc(C)cc2C)n1 (centres unmarked) : -1.956%
* O=C(CCNC(=O)c1ccoc1)NCc1ccccc1F : -5.318%
* O=C(c1nn(-c2ccccc2F)cc1O)N1CCCCC1 : 4.449%
* O=C1CCC(C(=O)NCCOc2ccccc2-c2ccccc2)CN1 (centres unmarked) : -3.403%
* CCn1cc(CN2CCCN(C(=O)c3ccc(C)o3)CC2)cn1 : 13.23%
* O=C(NCc1cc[nH]n1)N1CCN(c2ncccn2)CC1 : 0.1727%
* CN(C)C(=O)CN1CCCC(Cc2ccc(N3CCCC3)nn2)C1 (centres unmarked) : 7.959%
* Cc1nc(C)n(CC2CCCN2CCc2ccncc2)n1 (centres unmarked) : 7.77%
* O=C1N(Cc2cccc(F)c2)CCC12CCCN(c1ncc(F)cn1)C2 (centres unmarked) : 1.906%
* COc1cc(C(=O)N2CCC3(CC2)Nc2ccccc2NC3=O)ccn1 : 7.807%
* CNCC(=O)N1CCC(c2ccnc(Nc3ccc(C)cn3)n2)C1.Cl (centres unmarked) : 38.44% & 18.84% & 60.87%
* Cc1nc(COc2cccc(C#N)c2)no1 : 8.068%
* Cc1nc(C)n(C2CCCN(C(=O)c3cc(C(N)=O)cs3)C2)n1 (centres unmarked) : -16.71%
* Cc1cnn(C2CN(CC(O)COc3ccc(C#N)cc3)C2)c1 (centres unmarked) : -8.91%
* N#Cc1cccnc1NCc1cccnc1N1CCC(C(N)=O)CC1 : 2.307%
* CC(C)CCNC(=O)c1ccc2c(=O)n(-c3ccccc3)cnc2c1 : -6.63%

The values are deposited in ChEMBL (CHEMBL3988442, “University of Dundee, Small-Polar-MMV Screening Library” (2021)).